The results are deposited in PubChem (AID1159506; NCATS, 2015).

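Luminescence from an EWS-FLI1 target-promoter (NR0B1) reporter, set against a CMV-promoter reporter, two days after silencing single genes in TC32 Ewing sarcoma cells.
Each siRNA was applied at 20 nM.
A z-score of the log NR0B1-over-CMV signal, less the median of siRNAs with the same seed; more negative means a stronger specific loss of the NR0B1 reporter.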

This is part of the screen; most of the strongest results are not listed here.
Sequences are the guide (antisense) strand, without overhang.

UGCUGAUUUGGGAUCUUGC against ADAT1 gave seed-corrected z-score -0.6908.
UGUAGCCACAUCUGAAGCC against RPS2P12 gave seed-corrected z-score -0.1724.
UUUCAUAACAUUACUUGCU against PFN1P3 gave seed-corrected z-score 0.329.
UCUACUUUCGGUUUGUCAG against PCGF5 gave seed-corrected z-score 0.8759.
UGCAUUAUCAAAUCCUUUC against FGD4 gave seed-corrected z-score 0.04192.
UAAUGGAGAUGAGCACUCC against TMEM200A gave seed-corrected z-score -0.3591.
UCAUAUCCACCAACGAUAC against LNX2 gave seed-corrected z-score 0.8203.
AAAGCCUCAUCUGCGAUGC against LRFN2 gave seed-corrected z-score 0.1145.
UUUACGCCGAUGAACACCU against GRHL3 gave seed-corrected z-score 0.3726.
UGGGUGUUGAGCCUUCUGU against C16orf82 gave seed-corrected z-score -0.2173.
UUUGGAUAAAUAUUAUUCC against INSIG1 gave seed-corrected z-score 0.4265.
AGUCUUCACACUUUAAUCC against PRKCD gave seed-corrected z-score -1.139.
UCUGGAUCAUCAUAAGCAU against EIF2S2P7 gave seed-corrected z-score -1.675.
AUCCUGGUCAGCGAUGUUG against ASB10 gave seed-corrected z-score -0.1817.
UAUCUGAAAGCAAAAGUGC against SNX10 gave seed-corrected z-score 1.24.
UAAGAUGUUGUUGCGGCCG against SLC35E1 gave seed-corrected z-score 0.1939.
UUCUUUAACCUGUAGUACA against PQLC2L gave seed-corrected z-score -1.23.
UGAGUAGAAAGAACUCAGC against ZSWIM8 gave seed-corrected z-score 0.4608.
UCUGAGUUCGCCGUUGACC against FAHD1 gave seed-corrected z-score -0.943.
UAAGUAGUCAGCGUAUGUC against COPS7A gave seed-corrected z-score 0.2662.
AUAGCUGCAAGAGUAAUAG against TBC1D9 gave seed-corrected z-score -0.1371.
AAUGUAAUCAAAAUUCCCA against MS4A5 gave seed-corrected z-score -0.007955.
AAAUGGGUCUGUUAAGUGG against IFT52 gave seed-corrected z-score 0.1845.
UAUUUGGAAAUGGUGUAGG against LYPD6B gave seed-corrected z-score -0.292.
AGAAUAACGACUGUGACUC against CNOT4 gave seed-corrected z-score -0.1363.
UGAGGUAUAGGUAUAUGAG against AMIGO1 gave seed-corrected z-score -0.03689.
UAUGCUUCAGGAUCAUAUG against ZNF639 gave seed-corrected z-score 0.3965.
AUUCGCUUGUCUGAGAUCC against LINC00290 gave seed-corrected z-score 0.3348.
UAUUUGUCCCGAGUCAGUC against INPP5D gave seed-corrected z-score -0.002952.
UGACAUAGAAAUACAGCUC against PLXNA3 gave seed-corrected z-score 0.06271.
UUGGAUAAAUUGCUGGAUC against CCDC42 gave seed-corrected z-score -0.02911.
UCGUUUACAACCAUCACAC against ZMYM6 gave seed-corrected z-score 0.1316.
UGAUGUCUAGGAUAAAAGC against PAQR8 gave seed-corrected z-score -0.3868.
UGUAAGUUCACACUUUCUC against XRCC2 gave seed-corrected z-score -0.7966.
UUUUCUUCCAGACGGGCUU against IER2 gave seed-corrected z-score 0.5515.
UGUCGUUAUAGGUAUAUCG against CR2 gave seed-corrected z-score -1.722.
AACUAGAUUCUUGAUAUUG against RBP4 gave seed-corrected z-score -0.04884.
UGUUCAUAUAAUAACAUAC against LOC728196 gave seed-corrected z-score 0.2035.
UUCCUGAUAAUGCUCCCAG against TARS2 gave seed-corrected z-score 0.2395.
AGAGCAACCAGGAUGGUGA against GHRHR gave seed-corrected z-score -1.174.
UGCGAGACCAGCGAAAAGC against LOC728975 gave seed-corrected z-score -0.2075.
AUUGCUCCCAAUACUGUUG against SAMD4B gave seed-corrected z-score 1.402.
UUUUCCACCACGAAACUGC against TMEM229A gave seed-corrected z-score 0.9666.
ACCCUUAGCAGUGUCCUCC against ZWINT gave seed-corrected z-score -0.07674.
UUGUUGUCCAGCUUGUAGG against CPNE6 gave seed-corrected z-score -0.413.
AGGGCAUCCAGAGUCUUGC against CIDEA gave seed-corrected z-score -0.749.
UAUAGUAUUCCCAAAAAUC against MCM9 gave seed-corrected z-score -0.2314.

The first 6 entries again:

strand,gene,seed-corrected z-score
UGCUGAUUUGGGAUCUUGC,ADAT1,-0.6908
UGUAGCCACAUCUGAAGCC,RPS2P12,-0.1724
UUUCAUAACAUUACUUGCU,PFN1P3,0.329
UCUACUUUCGGUUUGUCAG,PCGF5,0.8759
UGCAUUAUCAAAUCCUUUC,FGD4,0.04192
UAAUGGAGAUGAGCACUCC,TMEM200A,-0.3591